# Assay results reported in the supplement of paper PMC8728848.
# This is one part of the list.
# B1: PX15642A-pgi-501-20-501 (Parabacteroides gingivalis) (protein)
# chain: CELDRDPEGKDFQQPYTSFVQTKQNRDGLYALLRNTENPRMHFYQELQSDMYCTTITDGNSLAPFVNWDLGILNDHGRADEDEVSGIAGYYFVYNRLNQQANAFVNNTEAALQNQVYKNSTEIANAKSFLAEGKVLQALAIWRLMDRFSFHESVTEVNSGAKDLGVILLKEYNPGYIGPRATKAQCYDYILSRLSEAIEVLPENRESVLYVSRDYAYALRARIYLALGEYGKAAADAKMVVDKYPLIGAADASEFENIYRSDANNPEIIFRGFASATLGSFTATTLNGAAPAGKDIKYNPSAVPFQWVVDLYENEDFRKSVYIAKVVKKDKGYLVNKFLEDKAYRDVQDKPNLKVGARYFSVAEVYLILVESALQTGDTPTAEKYLKALSKARGAEVSVVNMEALQAERTRELIGEGSRLRDMVRWSIPNNHDAFETQPGLEGFANTTPLKAQAPVGFYAYTWEFPQRDRQTNPQLIKNWPI
# Experiments:
# Test in all cases: glycan array binding signal (z-score within array); higher = stronger binding
# Conditions in all cases: glycan notation: IUPAC condensed, linker removed
# [1] = molecular target: Neu5Ac(a2-6)GlcNAc(b1-4)GlcNAc(b1-4)GlcNAc
# Outline: (§1)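 The binding signal is a Z-score computed within each array. Data were drawn from 3228 arrays in the Consortium for Functional Glycomics database, restricted to those with a known protein sequence. Scores were averaged over arrays of the same protein sequence at different concentrations or buffers, and over linkers, and negative values can be taken as non-binding.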
# Neu5Ac(a2-8)Neu5Ac = molecular target: Neu5Ac(a2-8)Neu5Ac
# Outline: as §1
# [2] = molecular target: Neu5Ac(a2-8)Neu5Ac(a2-3)Gal(b1-3)GalNAc(b1-4)[Neu5Ac(a2-3)]Gal(b1-4)Glc
# Outline: as §1
# [3] = molecular target: Neu5Ac(a2-8)Neu5Ac(a2-3)Gal(b1-3)GalNAc(b1-4)[Neu5Ac(a2-8)Neu5Ac(a2-3)]Gal(b1-4)Glc
# Outline: as §1
# [4] = molecular target: Neu5Ac(a2-8)Neu5Ac(a2-3)Gal(b1-4)Glc
# Outline: as §1
# [5] = molecular target: Neu5Ac(a2-8)Neu5Ac(a2-3)Gal(b1-4)GlcNAc
# Outline: as §1
# [6] = molecular target: Neu5Ac(a2-8)Neu5Ac(a2-3)[Gal(b1-3)GalNAc(b1-4)]Gal(b1-4)Glc
# Outline: as §1
# [7] = molecular target: Neu5Ac(a2-8)Neu5Ac(a2-3)[GalNAc(b1-4)]Gal(b1-4)Glc
# Outline: as §1
# [8] = molecular target: Neu5Ac(a2-8)Neu5Ac(a2-8)Neu5Ac
# Outline: as §1
# [9] = molecular target: Neu5Ac(a2-8)Neu5Ac(a2-8)Neu5Ac(a2-3)Gal(b1-4)Glc
# Outline: as §1
# [10] = molecular target: Neu5Ac(a2-8)Neu5Ac(a2-8)Neu5Ac(a2-3)[Gal(b1-3)GalNAc(b1-4)]Gal(b1-4)Glc
# Outline: as §1
# [11] = molecular target: Neu5Ac(a2-8)Neu5Ac(a2-8)Neu5Ac(a2-3)[GalNAc(b1-4)]Gal(b1-4)Glc
# Outline: as §1
# [12] = molecular target: Neu5Ac(a2-8)Neu5Ac(a2-8)Neu5Ac(a2-8)Neu5Ac(a2-3)[GalNAc(b1-4)]Gal(b1-4)Glc
# Outline: as §1
# [13] = molecular target: Neu5Ac(a2-8)Neu5Gc(a2-3)Gal(b1-4)GlcNAc
# Outline: as §1
# [14] = molecular target: Neu5Ac(b2-6)Gal(b1-4)GlcNAc
# Outline: as §1
# Neu5Ac(b2-6)GalNAc = molecular target: Neu5Ac(b2-6)GalNAc
# Outline: as §1
# [15] = molecular target: Neu5Ac9Ac(a2-3)Gal(b1-3)GlcNAc
# Outline: as §1
# [16] = molecular target: Neu5Ac9Ac(a2-3)Gal(b1-4)GlcNAc
# Outline: as §1
# [17] = molecular target: Neu5Ac9Ac(a2-6)Gal(b1-4)GlcNAc
# Outline: as §1
# [18] = molecular target: Neu5Gc(a2-3)Gal(b1-3)GlcNAc
# Outline: as §1
# [19] = molecular target: Neu5Gc(a2-3)Gal(b1-3)[Fuc(a1-4)]GlcNAc
# Outline: as §1
# Neu5Gc(a2-3)Gal(b1-4)Glc = molecular target: Neu5Gc(a2-3)Gal(b1-4)Glc
# Outline: as §1
# [20] = molecular target: Neu5Gc(a2-3)Gal(b1-4)GlcNAc
# Outline: as §1
# [21] = molecular target: Neu5Gc(a2-3)Gal(b1-4)GlcNAc(b1-3)Gal(b1-4)GlcNAc(b1-2)Man(a1-3)[Neu5Gc(a2-3)Gal(b1-4)GlcNAc(b1-3)Gal(b1-4)GlcNAc(b1-2)Man(a1-6)]Man(b1-4)GlcNAc(b1-4)GlcNAc
# Outline: as §1
# [22] = molecular target: Neu5Gc(a2-3)Gal(b1-4)[Fuc(a1-3)]GlcNAc
# Outline: as §1
# [23] = molecular target: Neu5Gc(a2-6)Gal(b1-4)GlcNAc
# Outline: as §1
# Neu5Gc(a2-6)GalNAc = molecular target: Neu5Gc(a2-6)GalNAc
# Outline: as §1
# [24] = molecular target: Neu5Gc(a2-8)Neu5Ac(a2-3)Gal(b1-4)GlcNAc
# Outline: as §1
# [25] = molecular target: Neu5Gc(a2-8)Neu5Gc(a2-3)Gal(b1-4)GlcNAc
# Outline: as §1
# [26] = molecular target: Neu5Gc(a2-8)Neu5Gc(a2-3)Gal(b1-4)GlcNAc(b1-3)Gal(b1-4)GlcNAc
# Outline: as §1
# [27] = molecular target: Neu5Gc(a2-8)Neu5Gc(a2-6)Gal(b1-4)GlcNAc
# Outline: as §1
# [28] = molecular target: Neu5Gc(b2-6)Gal(b1-4)GlcNAc
# Outline: as §1
binder,measurement,setting,value
B1,glycan array binding signal (z-score),[1],-0.634
same,glycan array binding signal (z-score),Neu5Ac(a2-8)Neu5Ac,-0.193
same,glycan array binding signal (z-score),[2],-0.631
same,glycan array binding signal (z-score),[3],1.23
same,glycan array binding signal (z-score),[4],0.138
same,glycan array binding signal (z-score),[5],0.498
same,glycan array binding signal (z-score),[6],-0.008
same,glycan array binding signal (z-score),[7],-0.038
same,glycan array binding signal (z-score),[8],-0.6
same,glycan array binding signal (z-score),[9],-0.727
same,glycan array binding signal (z-score),[10],1.75
same,glycan array binding signal (z-score),[11],0.122
same,glycan array binding signal (z-score),[12],-0.359
same,glycan array binding signal (z-score),[13],15.5
same,glycan array binding signal (z-score),[14],-0.299
same,glycan array binding signal (z-score),Neu5Ac(b2-6)GalNAc,-0.953
same,glycan array binding signal (z-score),[15],-0.475
same,glycan array binding signal (z-score),[16],-1.35
same,glycan array binding signal (z-score),[17],-0.226
same,glycan array binding signal (z-score),[18],-0.349
same,glycan array binding signal (z-score),[19],-0.342
same,glycan array binding signal (z-score),Neu5Gc(a2-3)Gal(b1-4)Glc,-0.465
same,glycan array binding signal (z-score),[20],-0.856
same,glycan array binding signal (z-score),[21],0.077
same,glycan array binding signal (z-score),[22],-0.476
same,glycan array binding signal (z-score),[23],-1.13
same,glycan array binding signal (z-score),Neu5Gc(a2-6)GalNAc,-0.199
same,glycan array binding signal (z-score),[24],-0.384
same,glycan array binding signal (z-score),[25],-0.59
same,glycan array binding signal (z-score),[26],-0.437
same,glycan array binding signal (z-score),[27],-0.753
same,glycan array binding signal (z-score),[28],-0.608

# Quoted at random: 2 records from the list.
binder,measurement,setting,value
B1,glycan array binding signal (z-score),[16],-1.35
same,glycan array binding signal (z-score),[18],-0.349
